Source: PMC7092623
These are yes or no findings as the source states them, for the method shown. Binding seen in cells or lysates may run through a third protein. Here binding means that the protein was enriched with, or labelled near, the bait; the list need not be complete.

Amino acid sequences for entries named in this document (tags omitted).
UniProt E7F6Z2: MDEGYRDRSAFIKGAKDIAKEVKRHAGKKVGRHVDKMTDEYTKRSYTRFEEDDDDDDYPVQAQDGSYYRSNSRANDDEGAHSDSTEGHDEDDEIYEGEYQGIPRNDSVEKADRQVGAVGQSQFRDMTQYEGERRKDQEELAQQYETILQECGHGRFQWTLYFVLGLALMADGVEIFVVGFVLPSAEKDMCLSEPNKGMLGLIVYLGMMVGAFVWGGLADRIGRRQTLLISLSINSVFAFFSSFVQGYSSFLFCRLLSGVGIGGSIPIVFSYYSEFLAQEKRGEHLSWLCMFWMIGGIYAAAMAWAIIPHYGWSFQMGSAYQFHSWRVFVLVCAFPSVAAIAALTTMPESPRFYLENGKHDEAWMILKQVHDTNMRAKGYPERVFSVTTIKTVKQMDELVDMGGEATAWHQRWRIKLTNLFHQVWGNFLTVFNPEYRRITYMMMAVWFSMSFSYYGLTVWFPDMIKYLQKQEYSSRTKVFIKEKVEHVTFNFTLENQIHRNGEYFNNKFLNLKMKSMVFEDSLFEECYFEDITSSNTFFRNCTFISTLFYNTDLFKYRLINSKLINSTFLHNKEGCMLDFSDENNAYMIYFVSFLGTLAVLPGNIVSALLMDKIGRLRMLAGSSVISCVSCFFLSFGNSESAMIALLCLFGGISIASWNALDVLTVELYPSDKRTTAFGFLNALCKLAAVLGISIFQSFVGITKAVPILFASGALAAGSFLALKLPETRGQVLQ

Columns and labels:
Test in all cases: affinity purification with mass spectrometry; eGFP-Rab28 (WT, Q72L or T26N) held on GFP-Trap beads from 5 dpf larval whole-eye lysates (100 eyes per replicate); IP lysis buffer 50 mM Tris HCl pH 7.5, 150 mM NaCl, 10 mM MgCl2, 1% NP-40, 1 mM DTT; 4°C, 2 h or overnight; on-bead trypsin digest, Q-Exactive; LFQ, t-test against eGFP only control
[1] = target: eGFP-Rab28 (wild type) (zebrafish) (UniProt Q7ZVW0)
[2] = target: eGFP-Rab28 Q72L (GTP-preferring) (zebrafish) (UniProt Q7ZVW0)
[3] = target: eGFP-Rab28 T26N (GDP-preferring) (zebrafish) (UniProt Q7ZVW0)

Measured: binding

Synaptic vesicle glycoprotein 2A (from UniProt E7F6Z2 1-733)
binds: [1] | [2] | [3]
